Data as given in PubChem BioAssay AID1508597 (Cure First, 2020)
This is one part, drawn at random, of about 2,100 deposited reagents. 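Calls flag viability under 80% in either arm, not effects specific to rucaparib; the reference for percent is not stated.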 Not stated in the record: the 100% reference.

Aim: 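Survival screen with siRNA in ovarian cancer cells derived from patients, with or without rucaparib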 (primary screen)
Cells: human ovarian carcinoma lines grown from tumours: OCI-P5x (papillary serous) and OCI-C5x (clear cell)
Reagents: siRNA pool against human genes, 1.25 pmol siRNA per well
Timing: 72 h or 96 h, depending on the cell culture
Treatment: rucaparib 20 µM (about IC30) or vehicle, present until read-out
Measured: 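ATP luminescence measured at 72 or 96 h according to the culture, then normalised and expressed as percent viability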
Reading the numbers: viability, normalised: higher = more viable cells remaining
Hit rule: 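a well counts as a hit if its normalised viability is under 80 percent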
Meaning of the calls: active = viability under 80%; inactive = viability 80% or more

RNF17 (ring finger protein 17), rucaparib or vehicle Rucaparib, cell line OCI-C5x (clear cell), technical replicate 1
- viability, normalised (%): 48.6
- activity call: active

RNF17 (ring finger protein 17), rucaparib or vehicle Rucaparib, cell line OCI-C5x (clear cell), technical replicate 2
- viability, normalised (%): 38.2
- activity call: active

RNF17 (ring finger protein 17), rucaparib or vehicle Rucaparib, cell line OCI-C5x (clear cell), technical replicate 3
- viability, normalised (%): 41.1
- activity call: active

RNF17 (ring finger protein 17), rucaparib or vehicle Rucaparib, cell line OCI-P5x (serous), technical replicate 1
- viability, normalised (%): 59.1
- activity call: active

RNF17 (ring finger protein 17), rucaparib or vehicle Rucaparib, cell line OCI-P5x (serous), technical replicate 2
- viability, normalised (%): 55.1
- activity call: active

RNF17 (ring finger protein 17), rucaparib or vehicle Rucaparib, cell line OCI-P5x (serous), technical replicate 3
- viability, normalised (%): 50.5
- activity call: active

RNF17 (ring finger protein 17), rucaparib or vehicle Vehicle, cell line OCI-C5x (clear cell), technical replicate 1
- viability, normalised (%): 38.6
- activity call: active

RNF17 (ring finger protein 17), rucaparib or vehicle Vehicle, cell line OCI-C5x (clear cell), technical replicate 2
- viability, normalised (%): 39.1
- activity call: active

RNF17 (ring finger protein 17), rucaparib or vehicle Vehicle, cell line OCI-C5x (clear cell), technical replicate 3
- viability, normalised (%): 47.9
- activity call: active

RNF17 (ring finger protein 17), rucaparib or vehicle Vehicle, cell line OCI-P5x (serous), technical replicate 1
- viability, normalised (%): 70.4
- activity call: active

RNF17 (ring finger protein 17), rucaparib or vehicle Vehicle, cell line OCI-P5x (serous), technical replicate 2
- viability, normalised (%): 76.2
- activity call: active

RNF17 (ring finger protein 17), rucaparib or vehicle Vehicle, cell line OCI-P5x (serous), technical replicate 3
- viability, normalised (%): 85.6
- activity call: inactive

ALDH18A1 (aldehyde dehydrogenase 18 family member A1), rucaparib or vehicle Rucaparib, cell line OCI-C5x (clear cell), technical replicate 1
- viability, normalised (%): 39.2
- activity call: active

ALDH18A1 (aldehyde dehydrogenase 18 family member A1), rucaparib or vehicle Rucaparib, cell line OCI-C5x (clear cell), technical replicate 2
- viability, normalised (%): 29.3
- activity call: active

ALDH18A1 (aldehyde dehydrogenase 18 family member A1), rucaparib or vehicle Rucaparib, cell line OCI-C5x (clear cell), technical replicate 3
- viability, normalised (%): 40.2
- activity call: active

ALDH18A1 (aldehyde dehydrogenase 18 family member A1), rucaparib or vehicle Rucaparib, cell line OCI-P5x (serous), technical replicate 1
- viability, normalised (%): 94.5
- activity call: inactive

ALDH18A1 (aldehyde dehydrogenase 18 family member A1), rucaparib or vehicle Rucaparib, cell line OCI-P5x (serous), technical replicate 2
- viability, normalised (%): 95.1
- activity call: inactive

ALDH18A1 (aldehyde dehydrogenase 18 family member A1), rucaparib or vehicle Rucaparib, cell line OCI-P5x (serous), technical replicate 3
- viability, normalised (%): 83.3
- activity call: inactive

ALDH18A1 (aldehyde dehydrogenase 18 family member A1), rucaparib or vehicle Vehicle, cell line OCI-C5x (clear cell), technical replicate 1
- viability, normalised (%): 55.5
- activity call: active

ALDH18A1 (aldehyde dehydrogenase 18 family member A1), rucaparib or vehicle Vehicle, cell line OCI-C5x (clear cell), technical replicate 2
- viability, normalised (%): 50.3
- activity call: active

ALDH18A1 (aldehyde dehydrogenase 18 family member A1), rucaparib or vehicle Vehicle, cell line OCI-C5x (clear cell), technical replicate 3
- viability, normalised (%): 56.2
- activity call: active

ALDH18A1 (aldehyde dehydrogenase 18 family member A1), rucaparib or vehicle Vehicle, cell line OCI-P5x (serous), technical replicate 1
- viability, normalised (%): 107
- activity call: inactive

ALDH18A1 (aldehyde dehydrogenase 18 family member A1), rucaparib or vehicle Vehicle, cell line OCI-P5x (serous), technical replicate 2
- viability, normalised (%): 96.7
- activity call: inactive

ALDH18A1 (aldehyde dehydrogenase 18 family member A1), rucaparib or vehicle Vehicle, cell line OCI-P5x (serous), technical replicate 3
- viability, normalised (%): 87
- activity call: inactive
